The assay has as its target Med17-HA (S. cerevisiae (endogenous in S288c)) (UniProt P32569). Put plainly: affinity purification with mass spectrometry; CoIP of Med17-HA on anti-HA magnetic beads from cryoground yeast lysate, 2 h at 4 °C; 20 mM HEPES pH 7.5, 300 mM KOAc, 10% glycerol, 0.01% NP-40, 6 mM MnSO4, 1 mM DTT, Cyanase nuclease; parallel control CoIP from 15N-labelled wild type cells, mixing after purification (MAP); GeLC-MS/MS, three biological replicates.

Sequences of proteins named here, by UniProt entry; tags and fusion partners are left off.
UniProt P32569: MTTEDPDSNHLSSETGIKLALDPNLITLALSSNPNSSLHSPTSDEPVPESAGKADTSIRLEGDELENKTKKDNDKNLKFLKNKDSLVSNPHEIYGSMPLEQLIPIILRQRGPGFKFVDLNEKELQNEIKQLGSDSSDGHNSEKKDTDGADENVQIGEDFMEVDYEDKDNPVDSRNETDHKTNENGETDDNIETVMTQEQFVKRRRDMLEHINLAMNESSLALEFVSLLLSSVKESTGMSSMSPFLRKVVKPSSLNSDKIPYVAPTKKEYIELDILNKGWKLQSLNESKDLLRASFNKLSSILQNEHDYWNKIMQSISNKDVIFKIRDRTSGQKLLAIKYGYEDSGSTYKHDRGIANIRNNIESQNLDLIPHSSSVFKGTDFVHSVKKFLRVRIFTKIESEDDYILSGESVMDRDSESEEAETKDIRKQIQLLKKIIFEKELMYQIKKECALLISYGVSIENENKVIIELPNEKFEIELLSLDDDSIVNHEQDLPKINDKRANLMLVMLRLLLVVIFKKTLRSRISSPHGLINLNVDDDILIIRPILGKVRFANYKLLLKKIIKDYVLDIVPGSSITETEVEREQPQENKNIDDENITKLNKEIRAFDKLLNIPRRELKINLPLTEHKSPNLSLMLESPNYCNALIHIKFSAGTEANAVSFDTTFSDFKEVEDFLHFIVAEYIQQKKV

Results are given in words; binding and its absence hold for the method and conditions named. In cells and extracts the contact can be indirect. A yes stands for co-enrichment or nearness to the bait. Other partners may have been found. Sequences can lack the tags named with a protein.

B1: Bas1 (protein, UniProt P22035 1-811)
chain: MSNISTKDIRKSKPKRGSGFDLLEVTESLGYQTHRKNGRNSWSKDDDNMLRSLVNESAKELGYENGLEDVKTIQQSNHLSKCIAWDVLATRFKHTVRTSKDVRKRWTGSLDPNLKKGKWTQEEDEQLLKAYEEHGPHWLSISMDIPGRTEDQCAKRYIEVLGPGSKGRLREWTLEEDLNLISKVKAYGTKWRKISSEMEFRPSLTCRNRWRKIITMVVRGQASEVITKAIKENKNIDMTDGKLRQHPIADSDIRSDSTPNKEEQLQLSQQNNPSLIKQDILNVKENESSKLPRLKDNDGPILNDSKPQALPPLKEISAPPPIRMTQVGQTHTSGSIRSKVSLPIEGLSQMNKQSPGGISDSPQTSLPPAFNPASLDEHMMNSNSISDSPKHAYSTVKTREPNSSSTQWKFTLKDGQGLSISNGTIDSTKLVKELVDQAKKYSLKISIHQHIHNHYVTSTDHPVSSNTGLSNIGNINGNPLLMDSFPHMGRQLGNGLPGLNSNSDTFNPEYRTSLDNMDSDFLSRTPNYNAFSLEATSHNPADNANELGSQSNRETNSPSVFYPQANTLIPTNSTATNNEIIQGNVSANSMSPNFNGTNGKAPSSTASYTTSGSEMPPDVGPNRIAHFNYLPPTIRPHLGSSDATRGADLNKLLNPSPNSVRSNGSKTKKKEKRKSESSQHHSSSSVTTNKFNHIDQSEISRTTSRSDTPLRDEDGLDFWETLRSLATTNPNPPVEKSAENDGAKPQVVHQGIGSHTEDSSLGSHSGGYDFFNELLDKKADTLHNEAKKTSEHDMTSGGSTDNGSVLPLNPS
As for B1, the binding entry is “binds”.

B2: Taf1 (protein, UniProt P46677 1-1066)
chain: MVKQQGSGKTNLANEDEAYEAIFGGEFGSLEIGSYIGGDEGANSKDYTEHLPDAVDFEDEDELADDDDDLPEESDANLHPAMMTMGAYDDVNENGAVLGIDSNSLNMQLPEINGDLSQQFILEDDGGTPATSNALFMGMDANEIHLATETGVLDGSGANEIGHSQLSIGGVNGNDMSINGGFIMEPDMSDGKHKKATKLDLINHEKYLLKKYFPDFEKGKILKWNKLIYRRSVPYHWHSEISRVKKPFMPLNLKFKVQQDDKRLFNSRTISYVAPIYQGKNNLLQSNSSASRRGLIHVSIDELFPIKEQQKKRKIIHDEKTISEDLLIATDDWDQEKIINQGTSSTATLADSSMTPNLKFSGGYKLKSLIEDVAEDWQWDEDMIIDAKLKESKHAELNMNDEKLLLMIEKTNNLAQQKQQLDSSNLILPLNETILQQKFNLSNDDKYQILKKTHQTKVRSTISNLNIQHSQPAINLQSPFYKVAVPRYQLRHFHRENFGSHIRPGTKIVFSKLKARKRKRDKGKDVKESFSTSQDLTIGDTAPVYLMEYSEQTPVALSKFGMANKLINYYRKANEQDTLRPKLPVGETHVLGVQDKSPFWNFGFVEPGHIVPTLYNNMIRAPVFKHDISGTDFLLTKSSGFGISNRFYLRNINHLFTVGQTFPVEEIPGPNSRKVTSMKATRLKMIIYRILNHNHSKAISIDPIAKHFPDQDYGQNRQKVKEFMKYQRDGPEKGLWRLKDDEKLLDNEAVKSLITPEQISQVESMSQGLQFQEDNEAYNFDSKLKSLEENLLPWNITKNFINSTQMRAMIQIHGVGDPTGCGEGFSFLKTSMKGGFVKSGSPSSNNNSSNKKGTNTHSYNVAQQQKAYDEEIAKTWYTHTKSLSISNPFEEMTNPDEINQTNKHVKTDRDDKKILKIVRKKRDENGIIQRQTIFIRDPRVIQGYIKIKEQDKEDVNKLLEEDTSKINNLEELEKQKKLLQLELANLEKSQQRRAARQNSKRNGGATRTENSVDNGSDLAGVTDGKAARNKGKNTTRRCATCGQIGHIRTNKSCPMYSSKDNPASPK
As for B2, the binding result is listed as “binds”.

B3: Haa1 (protein, UniProt Q12753 1-694)
chain: MVLINGIKYACERCIRGHRVTTCNHTDQPLMMIKPKGRPSTTCDYCKQLRKNKNANPEGVCTCGRLEKKKLAQKAKEEARAKAKEKQRKQCTCGTDEVCKYHAQKRHLRKSPSSSQKKGRSISRSQPMFERVLSSTSLDSNMLSGHGALSDTSSILTSTFLDSEPGVGKISKDYHHVPSLASISSLQSSQSLDQNFSIPQSPPLSSMSFNFLTGNINETNQNHSNHQHSKSGNNWQDSSVSLPAKADSRLNMMDKNNSVGLDLLGHSKRISPISNSRVGEVSVPLEEYIPSDIDGVGRVTDKSSLVYDWPFDESIERNFSTTATAATGESKFDINDNCNRINSKSYSKTNSMNGNGMNNSNNNNINSNGNDKNNNNSSRQEHQGNGLFDMFTDSSSISTLSRANLLLQEKIGSQENSVKQENYSKNPQLRHQLTSRSRSFIHHPANEYLKNTFGNSHSNDIGKGVEVLSLTPSFMDIPEKERETERSPSSNYITDRPFTRKPRSSSIDVNHRYPPMAPTTVATSPGALNNAVASNLDDQLSLTSLNSQPSSIANMMMDPSNLAEQSSIHSVPQSINSPRMPKTGSRQDKNIHTKKEERNPLNNIHDLSQLENVPDEMNQMFSPPLKSMNRPDAIRENSSSSNFIIQGNSMISTPSGRNDLPDTSPMSSIQTASPPSQLLTDQGFADLDNFMSSL
In the case of B3, the binding result is “binds”.

B4: Swi6 (protein, UniProt P09959 1-803)
chain: MALEEVVRYLGPHNEIPLTLTRDSETGHFLLKHFLPILQQYHDTGNINETNPDSFPTDEERNKLLAHYGIAVNTDDRGELWIELEKCLQLLNMLNLFGLFQDAFEFEEPETDQDEEDPSHSKLPENKTKSENSKDNISSKRINNLQDMSLDSDAHRELGSPLKKLKIDTSVIDAESDSTPNTARGKPNDDINKGPSGDNENNGTDDNDRTAGPIITFTHDLTSDFLSSPLKIMKALPSPVVNDNEQKMKLEAFLQRLLFPEIQEMPTSLNNDSSNRNSEGGSSNQQQQHVSFDSLLQEVNDAFPNTQLNLNIPVDEHGNTPLHWLTSIANLELVKHLVKHGSNRLYGDNMGESCLVKAVKSVNNYDSGTFEALLDYLYPCLILEDSMNRTILHHIIITSGMTGCSAAAKYYLDILMGWIVKKQNRPIQSGTNEKESKPNDKNGERKDSILENLDLKWIIANMLNAQDSNGDTCLNIAARLGNISIVDALLDYGADPFIANKSGLRPVDFGAGTSKLQNTNGGDENSKMVSKGDYDGQKNGKAKKIRSQLLKNPPETTSLINDVQNLLNSISKDYENETVQYNEKLEKLHKELNEQREELANSREQLANVKQLKDEYSLMQEQLTNLKAGIEEEEESFREESKKLGIIADESSGIDWDSSEYDADEPFKVEFLSDFLEDKLQKNYEGDISKLLEAESKEQIMEQIRNQLPAEKIQSMLPPTVLLKARINAYKRNDKHLTNVLDTISTKQSELENKFRRVLSLCLKIDENKVDNMLDGLLQAISSEDPQDIDTDEMQDFLKKHAS
Regarding B4, the binding result is “binds”.

B5: Cup2 (protein, UniProt P15315 1-225)
chain: MVVINGVKYACETCIRGHRAAQCTHTDGPLQMIRRKGRPSTTCGHCKELRRTKNFNPSGGCMCASARRPAVGSKEDETRCRCDEGEPCKCHTKRKSSRKSKGGSCHRRANDEAAHVNGLGIADLDVLLGLNGRSSDVDMTTTLPSLKPPLQNGEIKADSIDNLDLASLDPLEQSPSISMEPVSINETGSAYTTTNTALNDIDIPFSINELNELYKQVSSHNSHSQ
As for B5, the binding result is on record as “binds”.

B6: Mbp1 (protein, UniProt P39678 1-833)
chain: MSNQIYSARYSGVDVYEFIHSTGSIMKRKKDDWVNATHILKAANFAKAKRTRILEKEVLKETHEKVQGGFGKYQGTWVPLNIAKQLAEKFSVYDQLKPLFDFTQTDGSASPPPAPKHHHASKVDRKKAIRSASTSAIMETKRNNKKAEENQFQSSKILGNPTAAPRKRGRPVGSTRGSRRKLGVNLQRSQSDMGFPRPAIPNSSISTTQLPSIRSTMGPQSPTLGILEEERHDSRQQQPQQNNSAQFKEIDLEDGLSSDVEPSQQLQQVFNQNTGFVPQQQSSLIQTQQTESMATSVSSSPSLPTSPGDFADSNPFEERFPGGGTSPIISMIPRYPVTSRPQTSDINDKVNKYLSKLVDYFISNEMKSNKSLPQVLLHPPPHSAPYIDAPIDPELHTAFHWACSMGNLPIAEALYEAGTSIRSTNSQGQTPLMRSSLFHNSYTRRTFPRIFQLLHETVFDIDSQSQTVIHHIVKRKSTTPSAVYYLDVVLSKIKDFSPQYRIELLLNTQDKNGDTALHIASKNGDVVFFNTLVKMGALTTISNKEGLTANEIMNQQYEQMMIQNGTNQHVNSSNTDLNIHVNTNNIETKNDVNSMVIMSPVSPSDYITYPSQIATNISRNIPNVVNSMKQMASIYNDLHEQHDNEIKSLQKTLKSISKTKIQVSLKTLEVLKESSKDENGEAQTNDDFEILSRLQEQNTKKLRKRLIRYKRLIKQKLEYRQTVLLNKLIEDETQATTNNTVEKDNNTLERLELAQELTMLQLQRKNKLSSLVKKFEDNAKIHKYRRIIREGTEMNIEEVDSSLDVILQTLIANNNKNKGAEQIITISNANSHA
In the case of B6, the binding entry was “binds”.

B7: Tye7 (protein, UniProt P33122 1-291)
chain: MNSILDRNVRSSETTLIKPESEFDNWLSDENDGASHINVNKDSSSVLSASSSTWFEPLENIISSASSSSIGSPIEDQFISSNNEESALFPTDQFFSNPSSYSHSPEVSSSIKREEDDNALSLADFEPASLQLMPNMINTDNNDDSTPLKNEIELNDSFIKTNLDAKETKKRAPRKRLTPFQKQAHNKIEKRYRININTKIARLQQIIPWVASEQTAFEVGDSVKKQDEDGAETAATTPLPSAAATSTKLNKSMILEKAVDYILYLQNNERLYEMEVQRLKSEIDTLKQDQK
For B7, the binding result is on record as “binds”.

For the origin of these results see article PMC5327418.
